The experiment concerns CD2F1 mice, L1210 leukemia ip, survival T/C. Description: NCI In Vivo Anticancer Drug Screen. Data for tumor model L1210 Leukemia (intraperitoneal) in CD2F1 (CDF1) mice. Conditions: T/C endpoint: mean survival time, higher T/C = longer survival. The procedure, abridged:
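Mice carrying a transplanted tumor received test compound or vehicle alone. The value is the measurement in the treated group divided by that in the vehicle-treated control group.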

Where [1] appears, read: dose: 300.0 mg/kg/injection, schedule: Q01DX009 (ip), vehicle: Klucel (hydroxypropylcellulose) (HPC).
Where [2] appears, read: dose: 400.0 mg/kg/injection, schedule: Q01DX009 (ip), vehicle: saline with Tween-80.
[3] abbreviates: dose: 200.0 mg/kg/injection, schedule: Q01DX001 (ip), vehicle: saline with Tween-80.
[4] abbreviates: dose: 400.0 mg/kg/injection, schedule: Q01DX001 (ip), vehicle: saline with Tween-80.
Where [5] appears, read: dose: 200.0 mg/kg/injection, schedule: Q04DX003 (ip), vehicle: saline with Tween-80.
Where [6] appears, read: dose: 400.0 mg/kg/injection, schedule: Q04DX003 (ip), vehicle: saline with Tween-80.
[7] abbreviates: dose: 100.0 mg/kg/injection, schedule: Q01DX009 (ip), vehicle: other.
Where [8] appears, read: dose: 200.0 mg/kg/injection, schedule: Q01DX009 (ip), vehicle: other.
The mark [9] stands for this setting: dose: 200.0 mg/kg/injection, schedule: Q01DX009 (ip), vehicle: saline with Tween-80.

The list is a part of this screen's results and no random one: it is rich in T/C values a quarter to a half above the control, in often repeated tests (any T/C) and in doses without a T/C. Further doses and runs are listed elsewhere. T/C is the treated group as % of the vehicle group. Some doses have a count of surviving animals in place of a T/C: the source files T/C as zero there, which appears to mark a toxic dose or a test without result, not a measured value. Some survivor counts are full or nearly so, which does not show that the dose was tolerated: the source hardly ever lists a survival T/C far under the control, and the zero likely stands for such cases as well. Survivors were counted at the toxicity check, usually on the fifth day, unless a day is given; later deaths do not show. Schedules are NCI's codes, taken here to give the interval after Q, in days (D) or hours (H), and the number of doses after X. Some doses were run more than once; the results are listed from low to high. Some structures stand for samples that the source files as different forms (salt, stereo form or complex); doses refer to the form tested. Brackets with × count equal records among those shown. For survival time, the PubChem record calls one and a half times the control and up active, and a quarter to a half above the control has no call in these data; cut-offs in other NCI protocols can differ. Some T/C values are followed by the survivors on the day toxicity was checked, most often the fifth; where none is given, no animal had died by that day.

For the compound `O=C(O)c1cccnc1Cl`, the survivor count under setting [1] is 4 of 6.

On to `CONC(=O)c1ccccc1N=NN(C)C`, for which the survivor count (dose: 75.0 mg/kg/injection, schedule: Q01DX009 (ip), vehicle: Klucel (hydroxypropylcellulose) (HPC)) is on record as 4 of 6; the survivor count (dose: 150.0 mg/kg/injection, schedule: Q01DX009 (ip), vehicle: Klucel (hydroxypropylcellulose) (HPC)) was 0 of 6 and 1 of 6; the survivor count under setting [1] was 0 of 6.

Turning to `CC[n+]1cccc2ccccc21`, the survivor count (dose: 50.0 mg/kg/injection, schedule: Q04DX003 (ip), vehicle: saline) is 3 of 6; the survivor count (dose: 75.0 mg/kg/injection, schedule: Q01DX009 (ip), vehicle: saline) was 2 of 6; the survivor count (dose: 100.0 mg/kg/injection, schedule: Q04DX003 (ip), vehicle: saline) is reported as 0 of 6.

Turning to `C=CCc1cc(CNCC(O)c2ccccc2)c(O)c(OC)c1` (stereo not given), for the setting “dose: 100.0 mg/kg/injection, schedule: Q01DX009 (ip), vehicle: Klucel (hydroxypropylcellulose) (HPC)”, the survivor count is reported as 0 of 3.

Take `COC(=O)Nc1nc2ccc(C3(c4ccc(F)cc4)OCCO3)cc2[nH]1`: the T/C by setting is: (dose: 12.5 mg/kg/injection, schedule: Q01DX009 (ip), vehicle: saline) 125 % of control; (dose: 25.0 mg/kg/injection, schedule: Q01DX009 (ip), vehicle: saline) 126 and 135 % of control; (dose: 50.0 mg/kg/injection, schedule: Q01DX009 (ip), vehicle: saline with Tween-80) 147 % of control; (dose: 70.0 mg/kg/injection, schedule: Q04DX003 (ip), vehicle: saline) 141 % of control [4 of 6 alive]; (dose: 80.0 mg/kg/injection, schedule: Q04DX003 (ip), vehicle: saline) 132 % of control [5 of 6 alive]; (dose: 100.0 mg/kg/injection, schedule: Q01DX009 (ip), vehicle: saline with Tween-80) 141 % of control. Moreover, the T/C (dose: 100.0 mg/kg/injection, schedule: Q01DX009 (oral), vehicle: saline) was 132 % of control. In addition, the survivor count runs as follows: (dose: 100.0 mg/kg/injection, schedule: Q01DX009 (ip), vehicle: saline) 6 of 6; (dose: 200.0 mg/kg/injection, schedule: Q01DX009 (ip), vehicle: saline) 0 of 6 and 2 of 6; under setting [2], 4 of 10; (dose: 400.0 mg/kg/injection, schedule: Q01DX009 (ip), vehicle: saline) 0 of 6.

For `N/N=C\C(=N/N)C(O)C(O)C(O)CO` (stereo not given), the survivor count under setting [3] is recorded as 3 of 3 and the survivor count under setting [4] was 3 of 3.

In the case of `[O]=[Sb]([c]1ccccc1)([c]1ccccc1)[c]1ccccc1`, the survivor count was 3 of 3 under setting [5] and 0 of 3 under setting [6].

As for `C/C=C1/C[C@@H](C)[C@@](C)(O)C(=O)OCC2=CC[N+]3([O-])CC[C@@H](OC1=O)[C@@H]23` (stereo not given in full), under setting [4], the survivor count is on record as 3 of 6.

For `COc1cc2ccc3c[n+](C)ccc3c2cc1OC`, the survivor count is, setting by setting: (dose: 200.0 mg/kg/injection, schedule: Q01DX009 (ip), vehicle: water) 3 of 6 and 5 of 6; (dose: 400.0 mg/kg/injection, schedule: Q01DX009 (ip), vehicle: water) 0 of 6 (2×).

Take `COc1cccc2c1C(=O)c1c(O)c3c(c(O)c1C2=O)C[C@@](O)(C(=O)COC(=O)Cc1cccc2ccccc12)C[C@@H]3OC1CC(N)C(O)C(C)O1` (stereo not given in full): the T/C is 127 % of control (dose: 1.0 mg/kg/injection, schedule: Q01DX009 (ip), vehicle: saline with Tween-80); 125 % of control (dose: 1.25 mg/kg/injection, schedule: Q04DX003 (ip), vehicle: other); 129 % of control (dose: 2.0 mg/kg/injection, schedule: Q01DX001 (ip), vehicle: other); 132 % of control (dose: 2.0 mg/kg/injection, schedule: Q01DX009 (ip), vehicle: saline with Tween-80); 129 % of control (dose: 2.5 mg/kg/injection, schedule: Q04DX003 (ip), vehicle: other); 128 % of control (dose: 2.5 mg/kg/injection, schedule: Q04DX003 (ip), vehicle: saline with Tween-80). Besides, the T/C is, setting by setting: (dose: 4.0 mg/kg/injection, schedule: Q01DX001 (ip), vehicle: other) 125 % of control; (dose: 4.0 mg/kg/injection, schedule: Q01DX009 (ip), vehicle: saline with Tween-80) 145 % of control; (dose: 5.0 mg/kg/injection, schedule: Q01DX001 (ip), vehicle: saline with Tween-80) 128 % of control; (dose: 5.0 mg/kg/injection, schedule: Q04DX003 (ip), vehicle: saline with Tween-80) 128 % of control; (dose: 8.0 mg/kg/injection, schedule: Q01DX001 (ip), vehicle: other) 134 % of control; (dose: 10.0 mg/kg/injection, schedule: Q01DX001 (ip), vehicle: saline with Tween-80) 130 % of control. Moreover, the T/C reads like this: (dose: 10.0 mg/kg/injection, schedule: Q04DX003 (ip), vehicle: other) 125 % of control; (dose: 16.0 mg/kg/injection, schedule: Q01DX001 (ip), vehicle: other) 141 % of control; (dose: 20.0 mg/kg/injection, schedule: Q01DX001 (ip), vehicle: saline with Tween-80) 132 % of control; (dose: 20.0 mg/kg/injection, schedule: Q04DX003 (ip), vehicle: saline with Tween-80) 137 % of control. Besides, the survivor count (dose: 20.0 mg/kg/injection, schedule: Q04DX003 (ip), vehicle: other) is on record as 4 of 6; the survivor count (dose: 40.0 mg/kg/injection, schedule: Q01DX001 (ip), vehicle: saline with Tween-80) was 2 of 10; the survivor count (dose: 40.0 mg/kg/injection, schedule: Q04DX003 (ip), vehicle: other) was 2 of 6; the survivor count (dose: 40.0 mg/kg/injection, schedule: Q04DX003 (ip), vehicle: saline with Tween-80) is 9 of 10.

For `COc1ccc(NC2=NCCS2)cc1`, the survivor count under setting [6] is recorded as 4 of 6.

With `S=c1cc[nH]c2ccccc12`, the survivor count is listed as 1 of 6 under setting [7] and 0 of 6 under setting [8].

`CCOC(=O)C([NH-])C([NH-])C(=O)OCC.[Cl][Pt+2][Cl]` (stereo not given): the T/C (dose: 6.25 mg/kg/injection, schedule: Q04DX003 (ip), vehicle: saline with Tween-80) is 137 % of control.

Turning to `O=S(=O)(c1ccc(N2CCOCC2)cc1)c1ccnc2cc(Cl)ccc12`, the survivor count runs as follows: under setting [9], 6 of 6; under setting [2], 6 of 6.

Turning to `C(=N\N=C\C1CCc2ccccc21)/c1ccco1` (stereo not given), the survivor count under setting [9] is 6 of 6.

On to `COc1cc(OC)c(/C=C/c2cc3c4ccccc4ccc3[n+](C)c2)c(OC)c1`, for which the survivor count is 1 of 3 under setting [3] and 1 of 3 under setting [4].

In the case of `O=C(CBr)N1c2ccccc2Sc2ccc(C(F)(F)F)cc21`, the survivor count is, setting by setting: (dose: 25.0 mg/kg/injection, schedule: Q01DX009 (ip), vehicle: other) 3 of 6; (dose: 50.0 mg/kg/injection, schedule: Q01DX009 (ip), vehicle: other) 3 of 6; under setting [7], 0 of 6; under setting [8], 0 of 6.

`O=C(O)CNC(=O)C(CSC(c1ccccc1)(c1ccccc1)c1ccccc1)NC(c1ccccc1)(c1ccccc1)c1ccccc1` (stereo not given): the survivor count was 3 of 6 (dose: 150.0 mg/kg/injection, schedule: Q01DX001 (ip), vehicle: saline) and 0 of 6 (dose: 300.0 mg/kg/injection, schedule: Q01DX001 (ip), vehicle: saline).

Take `CC(=O)NCC(C)CCC1OC2CC3C4CC=C5CC(OC(C)=O)CCC5(C)C4CCC3(C)C2C1C` (stereo not given): the survivor count (dose: 100.0 mg/kg/injection, schedule: Q04DX003 (ip), vehicle: saline with Tween-80) is 5 of 6; the survivor count under setting [5] was 0 of 6; the survivor count under setting [6] is given as 0 of 6.

As for `c1ccc(C(c2ccccc2)C(c2ccccc2)c2ccccc2)cc1`, the survivor count (dose: 75.0 mg/kg/injection, schedule: Q01DX009 (ip), vehicle: saline with Tween-80) is on record as 6 of 6.

The values are drawn from PubChem BioAssay AID256 (DTP/NCI, 2004).
